Laboratory results from patent US9079048B2 (Lipotec, S.A., priority 2005, dated 2015).

Experiment: general procedure: Fmoc solid-phase peptide synthesis; 2-chlorotrityl resin
Conditions: whole synthesis, gradient 20 to 50% MeCN (+0.07% TFA) in H2O (+0.1% TFA) in 30 minutes, scale 8.8 mmol

## H-Tyr-Gly-Gly-Phe-Leu-OH
  crude HPLC purity: greater than 98%
